Assay results as given in the supplement of paper PMC5949888.
Most values lie at the floor of the assay. Slopes are relative: functional sequences can read slightly below zero.

Tested on: Saccharomyces cerevisiae PS128 hsf1 delta, HSF1(1-493) fusion
Test: growth estimate (transactivation domain function in HSF1 fusion, heat-shock survival) (a.u. (slope of normalised read count over time)); higher = stronger growth at 37°C, i.e. more transactivation activity
Details: library: random library

Substance | growth estimate
HVTASGLRFVVAAFTANRTA | < -0.25
LSLSQ | < -0.25
CVVG | < -0.25
RDIFLGSCSWRIRRPISLPR | < -0.25
HDLRVTSAIMNTA | < -0.25
IRISVEPDRSGPSIDHHIAA | < -0.25
LTVEKRG | < -0.25
DERNLC | < -0.25
LMRAREDQTGHYWSASRERG | < -0.25
HRKRS | < -0.25
YALFVRPQCGCRPL | < -0.25
KPTVWLQFLRICPVHSNDGW | < -0.25
CSGKWLAVRRPLGNCT | < -0.25
RWAYFSSVLTWAQKSGCIVS | < -0.25
PTQLGIYGSLCNRGPTTQHQ | < -0.25
VRCMVSPGYSQSERNGFSNT | < -0.25
NDFDVPWECDLKSVS | -0.245
QLKSNHNWLAE | < -0.25
YPEWSERHGSAAAE | < -0.25
VCPPIRSSKRRSGMLWADTS | < -0.25
GNEHEGKCGSDTVDEPSTLS | < -0.25
YWWV | < -0.25
VMNSVSW | -0.221

Substance | growth estimate
YEVLNS | < -0.25
TLATETLR | < -0.25
RLSLWYSSKRRYPAHRAAAD | < -0.25
LNANPSQVRLAHGIIGGILP | < -0.25
LSDRRSLFLNRCETDSQIQP | < -0.25
KNYSNK | < -0.25
WGRTVRWRLLASGFSTPSVG | < -0.25
STVSLSDW | < -0.25
TRGVVGNLCQR | < -0.25
LVPIGRIDLEVIAFTPPRSG | < -0.25
VKRTVRCSGLNFTLQVQNPG | < -0.25
LDRRLGLLTTVS | < -0.25
QLESTILL | < -0.25
MLRRGL | < -0.25
DNQVYENEDYEHHEH | < -0.25
FVEIVNSFKNA | < -0.25
RVHVTDEARATDRD | < -0.25
REIRLVGTT | < -0.25
PQGSIQADTLEFP | < -0.25
PWRSARYKRY | < -0.25
LVAKGHGVRATAGSTCPV | < -0.25
RNWQAYRTLTQRA | < -0.25
SDFHGQLDKKGNLNV | < -0.25

Individual results from the results shown:
QLESTILL – growth estimate: < -0.25
TLATETLR – growth estimate: < -0.25
TRGVVGNLCQR – growth estimate: < -0.25
SDFHGQLDKKGNLNV – growth estimate: < -0.25
LNANPSQVRLAHGIIGGILP – growth estimate: < -0.25
STVSLSDW – growth estimate: < -0.25
WGRTVRWRLLASGFSTPSVG – growth estimate: < -0.25

Further results follow.

Substance | growth estimate
ETLDKAVETYMSYL | 7.46
TEDGTDSRLLRCQEDACHPW | < -0.25
FVCNHSGSRDHTAWCAPGTA | < -0.25
IITVLRFASVPEVDPSCQPW | < -0.25
GERACGGFNHII | < -0.25
QFHTCRQVRGRAGALEAGQC | < -0.25
RLQDFGSTRFKSH | < -0.25
CGCCSWDGDARGPTANWGFS | 0.81
LKLLLDACCMKQVYAIYRRI | < -0.25
QSTNDS | < -0.25
IQGVSNGVLGYVLVVSALNR | < -0.25
CRGPRADWHNRGRPCLCCGL | < -0.25
LNAPPMLRKPDWGCQGIHCT | < -0.25
AAGRRRKRMTWTRTQLDGGI | < -0.25
DCFLRFFNSADRVELVLEVR | < -0.25
RVKTDTVLNSL | < -0.25
ESPLSVACVRHASVRLRPRA | < -0.25
GVTG | < -0.25
VCRDYSTVCFGWTFAK | < -0.25
FYTSLGVKAGTLRTWDAPMQ | < -0.25
NGHSHPQLPQSNTPQLTESS | < -0.25
CTPYSRWPIVATNDLCSSLA | < -0.25
VTFWRAILPRKLSVDR | -0.246

Substance | growth estimate
RHKPRFHLKNVGIRDKRRGR | < -0.25
VIPG | < -0.25
GSDDRCAY | < -0.25
SRPRAIRGAGMPKQFEDRGD | < -0.25
GGLGSLAYVEPILACYLAAS | < -0.25
MTLSTPESRQAPHRTVLSIS | < -0.25
SRSSEGRPGFERQNDYSTSS | < -0.25
DTKCVS | < -0.25
FQPRTAPRRRDRFLGL | < -0.25
GSWQSNGHHIFAFGVGSPWL | < -0.25
LEKSTSRFACDERCFR | < -0.25
NLMGGGNS | -0.231
GLILRREEELPGYGC | -0.245
GGGNDRARLIQGSSFGVRCY | -0.245
FSGSLNSGSQGPRDMHECQL | < -0.25
MDTIKMEVVTCDARYSST | < -0.25
PPPGTR | < -0.25
LSIFTSRRGNIGPWALFEEK | < -0.25
LAGSQRSTISSPSIPYI | < -0.25
VVAFIKGGVPKG | < -0.25
QEDILVGSITGAWLLIVGYH | < -0.25
LSSGFFSAGWNTVGKGI | < -0.25
SCDERFKLVFL | < -0.25

Substance | growth estimate
SMMRRLYRHLVRFFLSGADG | < -0.25
TYTPWADKIILVNLSSPPLE | < -0.25
GLVWQHPSFWST | < -0.25
VSRWGNSKAIRAIRRGLYRI | < -0.25
RVRSRV | < -0.25
GGSCGGVAQSLAEIPKTFPR | < -0.25
HGSIPTENLLVTGHHLWIGT | < -0.25
HYRAFYRETAIAIALVCSGS | < -0.25
ELTRYANKIYLTVASKLIPG | < -0.25
TKDRCA | < -0.25
DNNGILYLNTCLRPRERRSD | < -0.25
VMKRVPAKSYQ | < -0.25
VLGSEVHTGV | < -0.25
HTASQVLEPPCVTSKRSVAW | < -0.25
TYRSLSAWWD | < -0.25
ELLTVRSG | < -0.25
FELRC | < -0.25
GLLLGRNRSPPVSLSG | < -0.25
GLAEHYLTGFAGFTCALRRT | < -0.25
KTSSPVPAVDG | < -0.25
AQRAARTTYDEPVQHRGTGR | < -0.25
ARRVQTTSAPDCSITLRPNG | < -0.25
VRC | < -0.25

Substance | growth estimate
MVSYSVTLTATQDWCSYST | < -0.25
AGCKSRRLP | < -0.25
TCSGLLAARVDRVSALRSAK | < -0.25
HFGAGLEPHLHPLQHDATCT | < -0.25
YGISLDIYSGHGLC | < -0.25
LEGLI | < -0.25
FQTRMEYELTPTTRIR | < -0.25
CHFTAESGQD | < -0.25
SSIVASLWVVV | < -0.25
SINVSSFIGAGLLSFDRFRL | < -0.25
STPKLDCDERLIFSLSTFVL | < -0.25
ATSAKGGQWSMWYTRTMSGG | < -0.25
ILKRRSA | < -0.25
AREFASNRIQGE | -0.217
YWFSSRSASVLWWLMITWTI | < -0.25
SGEFRDSFPKRVGLLVLVPS | < -0.25
PHKQCWESRTQNTNCLNGRA | < -0.25
QEQGRRLGREIGLLDRADSA | < -0.25
CDHRMGRP | < -0.25
GMCGH | < -0.25
HPQVKRTT | < -0.25
YEEGCCRIPRRREFRVFRCR | < -0.25
PAGRIVKVARKLTWCLLL | < -0.25

Substance | growth estimate
VYGDGTHQS | < -0.25
RWFLLGDERIKDWVSPPYPR | < -0.25
PRSKEVRSCRS | < -0.25
TVH | < -0.25
TYRVAGLILPSATRPIV | < -0.25
MNANCLV | < -0.25
RRLPVPAN | < -0.25
FRCVLGSLLG | < -0.25
VFPESASKYCINIARINLGR | < -0.25
HSSGGTLIGEALPVTLADRR | -0.245
GRSSF | < -0.25
PLVTGRGSSLLARWVRRNYG | < -0.25
TRGLGLRGHIKEGPRWKVTS | < -0.25
LDGELFFR | < -0.25
GRCDRLSLGRNLRTKGSLTV | < -0.25
PRTPYCIVGGQLYQWGIQSQ | < -0.25
LPGDYDAACLGVERWRRKAP | < -0.25
RAEYRDWRGNCGTQPDLRPT | < -0.25
TEYGPARLHVMSSPALS | < -0.25
